Test results taken from the supplement of paper PMC12819154, “High-throughput peptide-centric local stability assay extends protein–ligand identification to membrane proteins, tissues and bacteria” (Nature Structural & Molecular Biology, 2025).
The list shows a part of the results, in another mix than the full data. Small differences around the control level are noise.

Amino acid sequences for entries named in this document (tags omitted). A change or cut given only in a name is not applied to a line headed by its entry.
UniProt P0AEJ4: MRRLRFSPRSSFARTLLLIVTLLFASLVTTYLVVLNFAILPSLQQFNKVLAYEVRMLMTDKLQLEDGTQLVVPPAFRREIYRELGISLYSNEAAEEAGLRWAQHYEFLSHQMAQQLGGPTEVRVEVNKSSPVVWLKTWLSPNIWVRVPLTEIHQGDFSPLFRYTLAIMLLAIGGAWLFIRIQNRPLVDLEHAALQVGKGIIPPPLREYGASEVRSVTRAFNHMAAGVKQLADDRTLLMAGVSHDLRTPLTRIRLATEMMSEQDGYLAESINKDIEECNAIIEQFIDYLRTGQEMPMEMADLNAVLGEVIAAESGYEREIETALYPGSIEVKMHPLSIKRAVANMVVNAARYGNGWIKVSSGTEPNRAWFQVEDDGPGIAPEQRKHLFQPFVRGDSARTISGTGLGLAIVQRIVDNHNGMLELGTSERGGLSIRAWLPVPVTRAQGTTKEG

target: UniProt P0AEJ4; assay: log2 fold change of tryptic peptide abundance, ligand vs vehicle (limited proteolysis) (log2 ratio); higher = more trypsin-susceptible (destabilized); conditions: peptide sequence: EYGASEVR; peptide start residue: 207; ligand concentration: 5 mM; sample: E. coli desalted lysate; replicate design: treated before aliquoting
Method: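 HT-PELSA: desalted E. coli K-12 BW25113 lysate (with 12 mM MgCl2) incubated with 5 mM ATP (pH 7) or water for 30 min at 25 C, then a 4 min trypsin pulse at 22 C. Peptides were quantified by DIA-MS (4 replicates). Value is the peptide log2 fold change (treated/control); negative = stabilized. Scale: negative = ligand-stabilized region.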
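Further: lysate desalted by size exclusion to strip endogenous ATP, peptide intensities built from DIA-NN precursor signals, and peptides missing any value discarded before comparison.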

Row | SMILES | log2 fold change
1 | Nc1ncnc2c1ncn2[C@@H]1O[C@H](COP(=O)(O)OP(=O)(O)OP(=O)(O)O)[C@@H](O)[C@H]1O [adenosine 5'-triphosphate] | -0.435
